Measurements: patent publication US8895035B2, “Alkoxyimino derivative and pest control agent” (Kumiai Chemical Industry Co., Ltd, priority 2010, dated 2014)
Some of these results come from one statement about several compounds together. For some of these results: At least one structure is not confirmed: it was looked up by name or label, or the drawing left a doubt.

Tests used:
Format in all cases: in vivo
[1] = system: Brown planthopper (Nilaparvata lugens); experiment: Trial of systematic insecticidal activity against brown planthopper; settings: 1,800 ppm active ingredient; 250 μl poured to rice-plant foot of rice seedlings; 3-age larvae; 25° C.; after 6 days
Description: A wettable powder prepared based on Formulation Example 2 was diluted with water so that the concentration of active ingredient became 1,800 ppm. 250 μl of the diluted formulation was poured to the rice-plant foot of 2.5-leaf age rice seedlings planted in a paper pot of 1.5 cm (length)×1.5 cm (width)×3 cm (height). Then, the paper pot was placed in a plastic cup of 700 ml. Into the plastic cup were released 5 3-age larvae of Nilaparvata lugens Stál (brown rice planthopper). The cup was covered with a cap and placed in a thermostat of 25° C. After 6 days, the number of living insects was counted and the mortality of insect was calculated using the calculation formula of Mathematical Expression 1.

[2] = system: Aphis gossipii Glover (cotton aphid, melon aphid); experiment: Insecticidal action test for Aphis gossipii Glover (drench); settings: 500 ppm active ingredient; 5 ml drenched to foot of cucumber seedlings with hatchlings; 25° C.; after 3 days
Description: A wettable powder prepared based on Formulation Example 2 was diluted with water so that the concentration of active ingredient became 500 ppm. 5 ml of the resulting diluted formulation was drenched to the […] foot of cucumber seedlings on which the hatchlings of Aphis gossipii Glover were parasitic. The resulting cucumber seedlings were placed in a thermostat of 25° C. After 3 days, the number of living insects was calculated and the mortality of insect was calculated using the calculation formula of Mathematical Expression 1.

[3] = system: Aphis gossipii Glover (cotton aphid, melon aphid); experiment: Insecticidal action test for Aphis gossipii Glover (seedling immersion); settings: 500 ppm active ingredient; cucumber seedlings with hatchlings immersed; 25° C.; after 3 days
[4] = system: Nilaparvata lugens Stál (brown rice planthopper); experiment: Insecticidal action test for Nilaparvata lugens Stál (immersed sprouting rice); settings: 500 ppm active ingredient; sprouting unhulled rice immersed; 3-age larvae; 25° C.; after 6 days
[5] = system: Plutella xylostella Linné (diamondback moth); experiment: Insecticidal action test for Plutella xylostella Linné; settings: 500 ppm active ingredient; cabbage leaves immersed; 2-age larvae; 25° C.; after 6 days

Structure (SMILES) | insect mortality [1] [%] | insect mortality [2] [%] | insect mortality [3] [%] | insect mortality [4] [%] | insect mortality [5] [%]
CCCCON=C(Cl)C(=NOC(C)C)n1cncn1 [I-5] | ≥ 90 | ≥ 90 | ≥ 90 | ≥ 90 | 
CCCCCON=C(C#N)C(=NOC(C)C)n1cncn1 [I-55] |  | ≥ 90 | ≥ 90 | ≥ 90 | 
CCCCCCCON=C(Cl)C(=NOCCCCCCC)n1cncn1 [I-233] | ≥ 90 | ≥ 90 |  | ≥ 90 | 
COc1ccccc1C(=NOC(C)C)C(=NOC(C)C)n1cncn1 [I-378] |  |  |  | ≥ 90 | ≥ 90
CON=C(C(C#N)=NOCC(C)(C)C)n1cncn1 [II-57] |  | ≥ 90 | ≥ 90 | ≥ 90 | 
CON=C(C(C#N)=NOC1CCCCC1)n1cncn1 [II-63] |  | ≥ 90 | ≥ 90 | ≥ 90 | 
CON=C(C(C#N)=NOCC1CC1)n1cncn1 [II-64] |  | ≥ 90 | ≥ 90 | ≥ 90 | 
CCON=C(C#N)C(Cl)=NOC(C)C [VI-25] |  |  |  | ≥ 90 | ≥ 90
CC(C)CCON=C(C#N)C(Cl)=NOC(C)C [VI-33] |  |  |  | ≥ 90 | ≥ 90
C#CCON=C(C#N)C(Cl)=NOCC [VI-110] |  |  |  | ≥ 90 | ≥ 90
CON=C(Cl)C(C#N)=NOC [VI-153] |  |  |  | ≥ 90 | ≥ 90
CCCC(C)ON=C(Cl)C(C#N)=NOC(C)C (stereo not shown) [VI-255] |  |  |  | ≥ 90 | ≥ 90
